The values that follow come from publication PMC4912122.

These are yes or no findings as the source states them, for the method shown. In cells and extracts the contact can be indirect. A result given as binding can be weak or reduced; the word gives no strength. Tags and fused reporters may be left off the sequences shown.

For this assay, the target named is GFP-tagged NbCUL1 (N. benthamiana). The assay is described as follows: co-IP; proteins co-expressed in N. benthamiana leaves by agroinfiltration, 50 μM MG132 12 h before harvest; GFP-tagged bait or GFP precipitated with GFP-Trap beads, 2 hours at 4°C, buffer NB1; blots with anti-HA, anti-GFP, anti-Myc.

B1: Myc-COI1 (protein, UniProt O04197 1-592)
chain: MEDPDIKRCKLSCVATVDDVIEQVMTYITDPKDRDSASLVCRRWFKIDSETREHVTMALCYTATPDRLSRRFPNLRSLKLKGKPRAAMFNLIPENWGGYVTPWVTEISNNLRQLKSVHFRRMIVSDLDLDRLAKARADDLETLKLDKCSGFTTDGLLSIVTHCRKIKTLLMEESSFSEKDGKWLHELAQHNTSLEVLNFYMTEFAKISPKDLETIARNCRSLVSVKVGDFEILELVGFFKAAANLEEFCGGSLNEDIGMPEKYMNLVFPRKLCRLGLSYMGPNEMPILFPFAAQIRKLDLLYALLETEDHCTLIQKCPNLEVLETRNVIGDRGLEVLAQYCKQLKRLRIERGADEQGMEDEEGLVSQRGLIALAQGCQELEYMAVYVSDITNESLESIGTYLKNLCDFRLVLLDREERITDLPLDNGVRSLLIGCKKLRRFAFYLRQGGLTDLGLSYIGQYSPNVRWMLLGYVGESDEGLMEFSRGCPNLQKLEMRGCCFSERAIAAAVTKLPSLRYLWVQGYRASMTGQDLMQMARPYWNIELIPSRRVPEVNQQGEIREMEHPAHILAYYSLAGQRTDCPTTVRVLKEPI
As for B1, the binding entry is recorded as “binds”.
